Earlier results as cited in patent US8148328B2, “Salicylanilides enhance oral delivery of therapeutic peptides” (The Regents of the University of California, priority 2006, dated 2012).
At least one structure is not confirmed: it was looked up by name or label, or the drawing left a doubt.

Test system: inflammatory response induced by the action of HPODE oxidizing PAPC in cocultures of human artery wall cells
Settings: apoE null mice, drinking water 24 hours; D-4F 1 μg/ml, atorvastatin or pravastatin 0.05 mg/ml; cited from earlier work

CC[C@H](C)C(=O)O[C@H]1C[C@H](O)C=C2C=C[C@H](C)[C@H](CC[C@@H](O)C[C@@H](O)CC(=O)O)[C@H]21 [pravastatin]
HDL function: did not improve HDL function
